These are yes or no findings as the source states them, for the method shown. Binding calls can cover weak binding; strength is not graded here. Sequences can lack the tags named with a protein.
Biological target: CD16A (UniProt P08637)
Assay: flow cytometry, anti-His AF647 detection, Jurkat-Lucia-NFAT-CD16A cells

The chains behind the UniProt entries cited, without tags or fusion partners. Where a name states a change or a piece, a line headed by the entry shows the natural chain unless it says otherwise.
UniProt P08637: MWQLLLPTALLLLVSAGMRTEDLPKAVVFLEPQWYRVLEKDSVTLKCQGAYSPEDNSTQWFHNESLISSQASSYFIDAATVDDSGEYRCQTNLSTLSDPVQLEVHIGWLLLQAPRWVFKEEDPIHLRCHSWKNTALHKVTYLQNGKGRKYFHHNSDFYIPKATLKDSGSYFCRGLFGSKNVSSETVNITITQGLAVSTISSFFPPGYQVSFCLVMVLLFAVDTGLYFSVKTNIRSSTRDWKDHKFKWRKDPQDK

| binding | Binder |
| --- | --- |
| binds | 02-0307-h4-CD16A_His (CLDN18.2-CD16A TandAb) (bispecific antibody) QVQLVQSGAEVKKPGESLKVSCKASGYTFTSYYMHWVRQAPGQGLEWMGIINPSGGSTSYAQKFQGRVTMTRDTSTSTVYMELSSLRSEDTAVYYCARGSAYYYDFADYWGQGTLVTVSSGGSGGSGGSDIVMTQSPDSLAVSLGERVTMNCKSSQSLLNSGNQKNYLSWYQQKPGQPPKLLFYWASTRESGVPDRFSGSGSGTDFTLTISSVQAEDVAVYYCQNDYSYPFTFGQGTKLEIKGGSGGSGGSEVQLLESGGGLVQPGGSLRLSCAASGFTFSSYTMSWVRQAPGKGLEWVATIIIGGSYTYYADSVKGRFTISRDNSKNTLYLQMNSLRAEDTAVYYCTRLVKGNAMDYWGQGTLVTVSSGGSGGSGGSSYVLTQPSSVSVAPGQTATISCGGHNIGSKNVHWYQQRPGQSPVLVIYQDNKRPSGIPERFSGSNSGNTATLTISGTQAMDEADYYCQVWDNYSVLFGGGTKLTVLHHHHHH |
| binds | 02-0358-h3-CD16A-His (CLDN18.2-CD16A TandAb) (bispecific antibody) QVQLVQSGAEVKKPGESLKVSCKASGYTFTSYYMHWVRQAPGQGLEWMGIINPSGGSTSYAQKFQGRVTMTRDTSTSTVYMELSSLRSEDTAVYYCARGSAYYYDFADYWGQGTLVTVSSGGSGGSGGSDIVMTQSPDSLAVSLGERVTMNCKSSQSLFNSGNQRNYLTWYQQKPGQPPKLLIYWASTRESGVPDRFSGSGSGTDFTLTISSVQAEDVAVYYCQNVYIYPLTFGQGTKLEIKGGSGGSGGSEVQLVESGGGLVQPGGSLRLSCAVSGFTFSSFGMHWVRQAPGKGLEWVAYISSGTTNIYYADSVKGRFTVSRDNAKNSLYLQMNSLRAEDTAVYYCVRSGYYGNSLDYWGQGTLVTVSSGGSGGSGGSSYVLTQPSSVSVAPGQTATISCGGHNIGSKNVHWYQQRPGQSPVLVIYQDNKRPSGIPERFSGSNSGNTATLTISGTQAMDEADYYCQVWDNYSVLFGGGTKLTVLHHHHHH |

— patent US20260104418A1
